Results are given in words; binding and its absence hold for the method and conditions named. Some binding calls cover weakened binding; strength is not graded here.
Molecular target: recombinant LanCL1 (Lanthionine synthetase C-like protein 1) (UniProt O43813)
Assay: photoprobe displacement from rLanCL1, in-gel fluorescence

Amino acid sequences for entries named in this document (tags omitted).
UniProt O43813: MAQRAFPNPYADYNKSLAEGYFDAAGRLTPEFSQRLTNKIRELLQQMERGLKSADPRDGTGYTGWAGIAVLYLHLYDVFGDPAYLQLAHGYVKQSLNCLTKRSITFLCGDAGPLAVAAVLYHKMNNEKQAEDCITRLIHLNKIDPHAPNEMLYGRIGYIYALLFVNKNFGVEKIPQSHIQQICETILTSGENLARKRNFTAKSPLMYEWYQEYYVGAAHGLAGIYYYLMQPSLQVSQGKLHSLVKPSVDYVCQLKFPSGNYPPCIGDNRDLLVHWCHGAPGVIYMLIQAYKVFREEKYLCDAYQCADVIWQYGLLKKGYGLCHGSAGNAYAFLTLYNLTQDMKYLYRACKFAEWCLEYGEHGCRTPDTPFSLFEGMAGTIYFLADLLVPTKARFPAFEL

binding | Binder
binds | YLRIVQCRSVEGSCGF (cyclised by a disulphide bond between the two cysteine residues) [peptide of SEQ ID NO:1, …]
binds | CQEQLERALNSSC (cyclized by a disulphide bond between the two cysteine residues) [cyclized peptide of SEQ ID NO:38, …]
binds | CRALNSSC (cyclised by a disulphide bond between the two cysteine residues) [cyclized peptide of SEQ ID NO:40, CRALNSSC]
